Test results: publication PMC10163288
Some of the results follow.

B1: il10ra_site1_normal_mot_HHH_b2_00345_af2_000000013_0001_42_56_H_._HHH_b2_01857_0001_0000400035_0000002_0 (protein)
chain: SSSSSDEEEEEVEELLEEAKHIEDHEKRIEILLEATHLALRAQDPELVQLVWEVFHRLIRSSSSS
B2: il10ra_site1_normal_mot_HHH_b1_08477_000000091_0001_40_57_H_._ems_3hM_3465_0001_0000500019_0000001_0 (protein)
chain: SNQEEQAVRFVERLARFAIERNDKRAIELVLQLARFVAESIDNPELSEEVEELIKELEEALKSSS
B3: il10ra_site1_sap_11_mot_HHH_b2_07006_000000108_0001_1_19_H_._HHH_b2_05318_0001_0000800037_0000002_0_0001 (protein)
chain: SSSSFHEVWELSRRIAEAIREGDEERVRELLEQLEELLEETGDPMVEYILKALRLLFEHTFSSSS
B4: il10ra_site1_normal_mot_6792f2186577ebd01aa11eb855ed7b57_0001_af2_000000149_0001_1_16_H_._HHH_b1_02093_af2_0001_0000100001_0000002_0 (protein)
chain: SSSSSDEEEVEELERRVEELEKEGDRERASRLLYEAAKIAARLGDRRLAQELIELFIRLSSSSSS
B5: il10ra_site1_normal_mot_HHH_b1_00999_000000080_0001_41_55_H_._HHH_b1_02466_af2_0001_0000400032_0000002_0 (protein)
chain: SSSSSDEEFAQLIQRAVQYAFRLGDQETLQRIWELARLYGEKGDPEVEEELERLLEELERRSSSS
B6: il10ra_site1_sap_31_mot_HHH_b2_07440_af2_000000021_0001_1_18_H_._HHH_b2_04449_0001_0000200017_0000001_0_0001 (protein)
chain: SSSSDVEEEVEELLEQVRELIERGDEHEAAQLLFKAMRLAYENRNEELWEKIIELAAKLQSSSSS
B7: il10ra_site1_sap_24_mot_HHH_b2_03434_000000017_0001_1_19_H_._HHH_b1_00954_af2_0001_0000300029_0000001_0_0001 (protein)
chain: SSSSSEENRELYELSREAMELLRNGNPEEAEKVLEEARELAEEAGNFVALFVIRHVLRVLRSSSS
B8: il10ra_site1_normal_mot_HHH_b2_03038_000000109_0001_1_20_H_._HHH_b1_06551_0001_0000300020_0000001_0 (protein)
chain: SSSSSEEHEELYELLREANELVRNNDEERAREILEEIEKLAEEVNDDIVRAILEFLERELESSSS
B9: il10ra_site1_normal_mot_8756ee2cf497b5429c717dfc0c0bcfd6_0001_000000186_0001_1_13_H_._HHH_b1_06747_0001_0000300034_0000001_0_af2pred_0001 (protein)
chain: SSSSSEEREELFELLRLVAELDKDGNPEEARRVLEEARELAEELGNLVAEAIIRFLEKHLSSSSS
B10: il10ra_site1_normal_mot_HHH_b2_02177_af2_000000045_0001_40_57_H_._ems_3hM_198_af2_0001_0000300014_0000001_0 (protein)
chain: SSDAREEVEKLYEELEEAAKKKDQELISEVAQKASRLALEEGDEELLHEIYRLFKEAIELLRSSS
B11: il10ra_site1_normal_mot_05ca327611f5605f0dd8494b449afcbf_0001_1_000000248_0001_35_51_H_._HHH_b2_03460_af2_0001_0000100003_0000002_0 (protein)
chain: SSSSDASQEVQELIERAFELAHEGDEEEAERLLEEAERLAEENNNEILKFAVRAAKRALNSSSSS
B12: il10ra_site1_normal_mot_HHH_b2_02116_af2_000000165_0001_41_55_H_._HHH_b1_05502_af2_0001_0000300011_0000001_0 (protein)
chain: SSSSDEEVRRRIAELYWRVAFLLRQGNPEEAKKVLEEMEELVEEYNDHQARAALRLAEQALSSSS
B13: il10ra_site1_sap_26_mot_HHH_b1_02637_000000294_0001_42_59_H_._HHH_b2_04435_0001_0000300037_0000001_0_0001 (protein)
chain: SSSSDEELKEVLELLRQAVRLALRGNPEKAEEVLEEAEELAREANDERALRMIEDMKRALKSSSS
B14: il10ra_site1_normal_mot_HHH_b2_05532_000000217_0001_1_18_H_._HHH_b2_05171_0001_0000200038_0000001_0_af2pred_0001 (protein)
chain: SSSSDEEVQEFVERVEEEAKELAERGDPREASELLVKASREAAEKGDPHLARYLAKLFARLSSSS
B15: il10ra_site1_sap_26_mot_HHH_b1_00317_af2_000000265_0001_23_40_H_._HHH_b1_05946_0001_0000100002_0000001_0_0001 (protein)
chain: SSSSDDVAREAVERMLEAAKQLDDEEYVRLALRFARASAEALGDPELQKLVEEVEEEIEERSSSS
B16: il10ra_site1_sap_23_mot_HHH_b2_07442_000000239_0001_40_54_H_._HHH_b1_01311_0001_0000400033_0000001_0_0001 (protein)
chain: SSSSDEEIREEVEELLEEAEKTSDVDEAYELLRRAIELASEGNDPELMRLVMEVSRRWLRSSSSS
B17: il10ra_site1_normal_mot_HHH_b2_06767_000000020_0001_41_56_H_._HHH_b2_08020_0001_0000100004_0000001_0 (protein)
chain: SSSSDEEEEEVLELLVRVARLLDEGDEEKAEEILREAEELAKEINDPRLELAVRFLKALASSSSS
B18: il10ra_site1_sap_19_mot_HHH_b1_03531_000000273_0001_41_54_H_._HHH_b1_03411_0001_0000300043_0000002_0_0001 (protein)
chain: SSSSTEAYEVARKAIEEARKLWEEGDDEQAREVLEEAIRIAEELGNWAAVFSLRHLLEALRSSSS
B19: il10ra_site1_sap_14_mot_HHH_b1_06819_af2_000000172_0001_23_38_H_._bfcbda098b113f8b03b409ccfd3d23fc_0001_af2_0001_0000600039_0000001_0_0001 (protein)
chain: SSSSDEEQRVVELLYRVVRLWAEGNPEEAEEVLKEARRLAEELGDEELERYVEIARSFVESSSSS
B20: il10ra_site1_sap_16_mot_6792f2186577ebd01aa11eb855ed7b57_0001_af2_000000149_0001_1_16_H_._ebd16f28eafe1420358629e7387fb1d1_0001_1_0001_0000600022_0000001_0_0001 … (protein)
chain: SSSSDEDERAVRRTLRFARFAFEEGDPEAAKFLLKAAKELAERAGNEELLKEIERLEEELKSSSS
B21: il10ra_site1_normal_mot_HHH_b2_02337_000000026_0001_38_52_H_._HHH_b1_05094_0001_0000200019_0000001_0 (protein)
chain: SSSSSDEEEREVEELIEEAEQIPDPEEAARVLQEAVRLAFRAKNKELLRLIWELVQKLHSSSSSS
B22: il10ra_site1_normal_mot_39a7b8d0c4c3fc04bafbda6ce6101d3a_0001_1_af2_000000014_0001_34_48_H_._HHH_b2_05946_0001_0000200011_0000001_0 (protein)
chain: SSSSSDEEEEEVEELLEEAKHVEDRQEADRLLLRALRIAIEGNNPELLQLVWRVVRELASSSSSS
B23: il10ra_site1_sap_22_mot_HHH_b2_07938_000000207_0001_42_56_H_._HHH_b1_08012_0001_0000300016_0000001_0_0001 (protein)
chain: SSSSSEVAREIYRLSREAMEYYREGDDEEARRLIEEAIELAEENNNRVQLVTLRYILKLLRSSSS
B24: il10ra_site1_sap_33_mot_HHH_b2_03631_af2_000000003_0001_42_56_H_._2afa63019087768a840a65be6aefc780_0001_1_0001_0000700020_0000001_0_0001 (protein)
chain: SSSSSDRQERLHARALVFFAKWARNPEAARIMLERAKELAEEVNDEELQREIEELLKELGSSSSS
B25: il10ra_site1_sap_18_mot_HHH_b2_04912_000000028_0001_1_20_H_._HHH_b1_05046_af2_0001_0000300024_0000002_0_0001_af2pred_0001 (protein)
chain: SSSSSSEESEELLEQLRRALEEGDEKLIIELAKEISRLARELNDKELLKELQKLLNKFLSSSSSS
B26: il10ra_site1_normal_mot_8756ee2cf497b5429c717dfc0c0bcfd6_0001_000000186_0001_1_13_H_._HHH_b2_05202_0001_0000100002_0000003_0_af2pred_0001 (protein)
chain: SSSSSSDVAQRIIELLRRAAKISDEEEVREILEEAEELAEEANNETARAIIEFLRKLLDSSSSSS
B27: il10ra_site1_sap_23_mot_HHH_b1_02637_000000294_0001_42_59_H_._HHH_b1_04025_0001_0000300021_0000002_0_0001 (protein)
chain: SSSSSDEEEERVEELLERAREIPDPDEAFKLIEEAIKIATESRNPELERLVMEFLREWLRSSSSS
B28: il10ra_site1_normal_mot_HHH_b1_05357_000000034_0001_23_39_H_._HHH_b2_00663_0001_0000400021_0000002_1_af2pred_0001 (protein)
chain: SSSSSSDEEEVERLLEEAKEVPDPEERSYLLVRAFAVAYRSNDPELERLVEEVAKRLSESSSSSS
B29: il10ra_site1_normal_mot_HHH_b1_00999_000000080_0001_41_55_H_._HHH_b1_05572_af2_0001_0000300008_0000001_0 (protein)
chain: SSSSDELEEEFEKLEEELKHIEDPEEFSRVAAELVRLAFKLGDEELLQELWRIVREFGRKSSSSS
B30: il10ra_site1_sap_24_mot_HHH_b1_03314_af2_000000278_0001_42_55_H_._HHH_b2_01456_af2_0001_0000400018_0000001_0_0001_af2pred_dldesign_0_af2pred (protein)
chain: SSSSSLNQEVIELIKEAAELLSEGKPEEAKEVLEKALELAKKANNPLLVYTVEYLLSRLESSSSS
B31: il10ra_site1_sap_20_mot_HHH_b2_00105_af2_000000045_0001_1_19_H_._HHH_b1_08219_0001_0000100014_0000001_0_0001 (protein)
chain: SSSSDEEERRLEELLREIEEALERGNPEEALELVFEVTHLALRAQDEEALREVWRLVEEIASSSS
B32: il10ra_site1_sap_22_mot_HHH_b1_06174_af2_000000049_0001_40_57_H_._HHH_b1_06759_0001_0000200009_0000002_0_0001 (protein)
chain: SSSSSDSQEVYELLREAAELDHEGNPEEAEELLEKARELAEELNNDVLLWQVEYLLRLLNSSSSS
B33: il10ra_site1_sap_13_mot_HHH_b1_06819_af2_000000053_0001_23_38_H_._HHH_b2_00593_0001_0000100010_0000003_0_0001 (protein)
chain: SSSSSEELNDEAYKILEEALELMANGNPEEARELLEELRELLEEAGNQIFLKQVEFLLKQLSSSS
B34: il10ra_site1_normal_mot_HHH_b1_00482_000000190_0001_20_39_H_._HHH_b1_07814_0001_0000100002_0000001_0 (protein)
chain: SSSSDEEHLRLAELLTEIIRLLAEGDPEEARKLLEEAEELARELNDELAEDMLRTLEQHINSSSS
B35: il10ra_site1_sap_15_mot_HHH_b1_05088_af2_000000046_0001_20_36_H_._HHH_b2_03488_0001_0000400042_0000001_0_0001 (protein)
chain: SSSSDSREVYELLRRAAELLHDGNPEEAREVLEEAHKIAEEANNRVMEAVIRRMLEVVEELSSSS
B36: il10ra_site1_sap_22_mot_HHH_b1_00982_af2_000000222_0001_1_20_H_._HHH_b2_03094_af2_0001_0000100002_0000002_0_0001 (protein)
chain: SSSSTQESYEFTKRVAQEIVELLRNGNEEEAERVLEEAKEYLEKLGDEYFVEILERAFELSSSSS
B37: il10ra_site1_normal_mot_HHH_b1_05056_000000217_0001_1_20_H_._HHH_b2_06260_0001_0000300022_0000001_0 (protein)
chain: SSSSSEDEEEVEELLRQAEEAAKRDPREAARLLQEATHIALENSNQELLQEVWKVVKELADSSSS

Biological target: il10ra, Q13651
Test: yeast display titration

Apparent Kd, inactive:
B1 no binding seen
B2 no binding seen
B3 no binding seen
B4 no binding seen
B5 no binding seen
B6 no binding seen
B7 no binding seen
B8 no binding seen
B9 no binding seen
B10 no binding seen
B11 no binding seen
B12 no binding seen
B13 no binding seen
B14 no binding seen
B15 no binding seen
B16 no binding seen
B17 no binding seen
B18 no binding seen
B19 no binding seen
B20 no binding seen
B21 no binding seen
B22 no binding seen
B23 no binding seen
B24 no binding seen
B25 no binding seen
B26 no binding seen
B27 no binding seen
B28 no binding seen
B29 no binding seen
B30 no binding seen
B31 no binding seen
B32 no binding seen
B33 no binding seen
B34 no binding seen
B35 no binding seen
B36 no binding seen
B37 no binding seen

3 records picked at random from the list so far, as already listed:
Apparent Kd, inactive:
B7 no binding seen
B16 no binding seen
B6 no binding seen
